Drawing on publication PMC6039525, this text covers binding for two substances.

Amino acid sequences for entries named in this document (tags omitted).
UniProt P27782: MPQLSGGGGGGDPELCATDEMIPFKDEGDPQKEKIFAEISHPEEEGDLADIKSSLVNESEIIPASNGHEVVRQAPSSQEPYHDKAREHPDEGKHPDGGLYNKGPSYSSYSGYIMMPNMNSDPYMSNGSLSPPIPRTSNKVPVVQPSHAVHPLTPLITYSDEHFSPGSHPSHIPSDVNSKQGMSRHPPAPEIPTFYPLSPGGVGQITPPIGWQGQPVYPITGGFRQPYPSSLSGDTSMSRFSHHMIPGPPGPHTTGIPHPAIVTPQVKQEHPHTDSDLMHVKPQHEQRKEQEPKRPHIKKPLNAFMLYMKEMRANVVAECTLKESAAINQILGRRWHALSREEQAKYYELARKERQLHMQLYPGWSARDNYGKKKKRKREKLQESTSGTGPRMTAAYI
UniProt Q9EPK5: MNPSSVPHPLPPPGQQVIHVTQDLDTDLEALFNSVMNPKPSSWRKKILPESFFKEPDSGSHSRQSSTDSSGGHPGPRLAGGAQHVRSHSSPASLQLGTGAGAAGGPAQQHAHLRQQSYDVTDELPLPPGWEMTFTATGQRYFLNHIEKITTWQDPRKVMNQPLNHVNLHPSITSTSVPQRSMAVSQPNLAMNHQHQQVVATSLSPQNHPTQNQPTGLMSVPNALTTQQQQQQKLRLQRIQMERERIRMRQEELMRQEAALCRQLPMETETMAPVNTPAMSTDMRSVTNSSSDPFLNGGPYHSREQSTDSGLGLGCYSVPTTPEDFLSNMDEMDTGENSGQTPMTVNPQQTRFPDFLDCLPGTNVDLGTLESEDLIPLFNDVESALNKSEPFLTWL

Experiment [1] addresses endogenous LEF1 of primary osteoblasts (mouse (endogenous in primary osteoblasts)) (UniProt P27782). Nature of the experiment: co-IP; lysates of primary osteoblasts (endogenous proteins) immunoprecipitated with control IgG or anti-LEF1 antibody; immunoblotting with anti-TAZ antibody.
In experiment [2] the target is lymphoid enhancer-binding factor 1 (LEF1) (UniProt P27782). Briefly: co-IP; 293FT cells transfected with expression vectors, incubated 3 days, lysed (20 mM HEPES pH 7.4, 150 mM NaCl, 1% Triton X-100); immunoprecipitation with anti-LEF1 antibody, Dynabeads Protein G or A; immunoblotting with anti-TAZ or anti-Flag. A general note: A western blot detects proteins with antibodies after separation by electrophoresis.

These are yes or no findings as the source states them, for the method shown. In cells and extracts the contact can be indirect. Some entries that bind do so weakly or less than the wild type.

On to “endogenous TAZ of primary osteoblasts (from UniProt Q9EPK5 1-395)”, for which the binding entry in experiment [1] is listed as “binds”. Take “transcriptional co-activator with PDZ-binding motif (TAZ) (from UniProt Q9EPK5 1-395)”: the binding result in experiment [2] was “binds”.
